Assay [1] deals with T1, AtSAP5 fused with the N terminus of luciferase (Arabidopsis) (UniProt Q9LHJ8).
T1 sequence: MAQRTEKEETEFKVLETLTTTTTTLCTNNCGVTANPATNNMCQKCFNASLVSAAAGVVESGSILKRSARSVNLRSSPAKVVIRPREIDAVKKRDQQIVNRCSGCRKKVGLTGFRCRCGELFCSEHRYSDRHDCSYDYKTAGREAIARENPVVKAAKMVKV
Kind of assay: split reporter.

In assay [2] the target is T2, AtSAP5 fused with the C terminus of yellow fluorescent protein (Arabidopsis) (UniProt Q9LHJ8).
T2 sequence: T1 sequence
The assay can be described thus: split reporter.

Results are given in words; binding and its absence hold for the method and conditions named. In cells and extracts the contact can be indirect. Some binding calls cover weakened binding; strength is not graded here. Sequences can lack the tags named with a protein.

B1: CAT2 fused with the C terminus of luciferase (enzyme, UniProt P25819 1-492)
chain: MDPYKYRPASSYNSPFFTTNSGAPVWNNNSSMTVGPRGPILLEDYHLVEKLANFDRERIPERVVHARGASAKGFFEVTHDISNLTCADFLRAPGVQTPVIVRFSTVIHERGSPETLRDPRGFAVKFYTREGNFDLVGNNFPVFFIRDGMKFPDMVHALKPNPKSHIQENWRILDFFSHHPESLNMFTFLFDDIGIPQDYRHMDGSGVNTYMLINKAGKAHYVKFHWKPTCGVKSLLEEDAIRVGGTNHSHATQDLYDSIAAGNYPEWKLFIQIIDPADEDKFDFDPLDVTKTWPEDILPLQPVGRMVLNKNIDNFFAENEQLAFCPAIIVPGIHYSDDKLLQTRVFSYADTQRHRLGPNYLQLPVNAPKCAHHNNHHEGFMNFMHRDEEVNYFPSRYDQVRHAEKYPTPPAVCSGKRERCIIEKENNFKEPGERYRTFTPERQERFIQRWIDALSDPRITHEIRSIWISYWSQADKSLGQKLASRLNVRPSI
For the molecule B1, the binding entry in assay [1] is “binds”.

B2: CAT2 fused with the N terminus of YFP (enzyme, UniProt P25819 1-492)
chain: B1 chain
B2: the binding result in assay [2] is given as “binds”.
